# Values quoted from earlier work in patent US20130253069A1, “Use of DMSO for Destroying Adipocytes and Eliminating Cellulite and Adiposities” (priority 2010, published 2013).
# For at least one compound, name, drawing or mass did not settle the structure.
# Details: cited from earlier work
structure (smiles),measurement,value
"C[S+](C)[O-] [DMSO, Dimethyl Sulfoxide]",concentration reached by pure DMSO if exposed to the environment (hygroscopic),66-67%
same,heat released when mixed with water,sixty
same,miscibility in non-polar solvents such as chloroform and methylene chloride,relatively miscible
same,miscibility in polar solvents as water and alcohol,freely miscible
